Assay results: publication PMC6915718

Protein sequences, listed by entry. Tags and fused reporters are not part of them. Residues count along the entry.
UniProt P02769, 25-607: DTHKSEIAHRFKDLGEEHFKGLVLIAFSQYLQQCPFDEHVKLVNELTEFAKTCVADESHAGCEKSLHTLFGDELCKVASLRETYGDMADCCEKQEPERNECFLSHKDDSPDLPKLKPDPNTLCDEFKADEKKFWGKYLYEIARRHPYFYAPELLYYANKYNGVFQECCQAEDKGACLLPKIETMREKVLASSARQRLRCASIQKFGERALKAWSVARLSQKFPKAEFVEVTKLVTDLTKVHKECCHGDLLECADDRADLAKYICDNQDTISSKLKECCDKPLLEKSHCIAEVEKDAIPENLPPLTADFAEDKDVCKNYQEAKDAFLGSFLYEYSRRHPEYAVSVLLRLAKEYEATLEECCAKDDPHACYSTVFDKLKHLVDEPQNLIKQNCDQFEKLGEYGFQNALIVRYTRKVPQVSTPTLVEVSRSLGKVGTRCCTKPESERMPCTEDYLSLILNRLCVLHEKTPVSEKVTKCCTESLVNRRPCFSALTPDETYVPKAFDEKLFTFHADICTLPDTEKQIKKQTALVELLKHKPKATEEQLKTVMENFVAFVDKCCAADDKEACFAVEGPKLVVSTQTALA

Tests used:
[1] = test system: Cdc13 (Naumovozyma castellii); assay: ExoT 3' end protection (3'DEPA); settings: D13S13 present in equal concentration, oligo not protected, recombinant protein, label: 5' end label, single-stranded DNA
[2] = test system: Rap1 full length (Naumovozyma castellii); assay: EMSA; settings: only minute amounts bound; EMSA with 10 fmol probe in 15 ul; 3'DEPA under the same binding conditions, then 0.015 U/ul ExoT at 25 C; recombinant protein; label: 5' 32P on G-rich strand
[3] = test system: Rap1 full length (Naumovozyma castellii); assay: ExoT 3' end protection (3'DEPA); EMSA; settings: EMSA with 10 fmol probe in 15 ul, 3'DEPA under the same binding conditions, then 0.015 U/ul ExoT at 25 C, label: 5' 32P on G-rich strand
[4] = test system: Rap1 DBD337-572 (Naumovozyma castellii); assay: ExoT 3' end protection (3'DEPA); settings: recombinant protein, label: 5' 32P on G-rich strand
[5] = test system: Rap1 DBD337-582 (Naumovozyma castellii); assay: ExoT 3' end protection (3'DEPA); settings: recombinant protein, label: 5' 32P on G-rich strand
BSA = BSA (UniProt P02769); assay: ExoT 3' end protection (3'DEPA); settings: overhang fully digested, commercial protein, label: 5' 32P on G-rich strand
[6] = test system: Cdc13 (Naumovozyma castellii); assay: EMSA; settings: EMSA with 10 fmol probe in 15 ul; 3'DEPA under the same binding conditions, then 0.015 U/ul ExoT at 25 C; recombinant protein; label: 5' 32P on G-rich strand

GGACTTAAAATGGCGTGGCAGAACTAACTCTT [Cdc13 no binding control]
binding result [1]: no binding

GTCACACGTCACACTCTGGGACTCTCCGTGTCTGGGTGTC / GGAGAGTCCCAGAGTGTGACGTGTGAC [D13S13mutRap1]
binding result [2]: binds more weakly

GTCACACGTCACACTCTGGGTGTCTGGGTGTCTGGGTGTC / ACCCAGACACCCAGAGTGTGACGTGTGAC [D15S11]
binding result ([3]; protects 1-2 nt of overhang, recombinant …): binds
binding result [4]: binds
binding result [5]: binds

GTCACACGTCACACTCTGGGTGTCTGGGTGTCTGGGTGTC / CCAGACACCCAGAGTGTGACGTGTGAC [D13S13]
binding result ([3]; bound across ds-ss junction, protects 6 nt of overhang, recombinant protein): binds
binding result [4]: binds
binding result [5]: binds
binding result (BSA): no binding
binding result [6]: binds

For some of these results: No signal at the amounts used counts as a negative. For some of these results: The exact form of at least one protein or probe is not confirmed. For some of these results: The comparison behind a weaker result is the experiment's own reference, which may not be listed here. For some of these results: At least one verdict was read from the data and is not stated in words by the source.
